Laboratory results as given in paper doi:10.64898/2025.12.05.692577.
Results are given in words; binding and its absence hold for the method and conditions named. In cells and extracts the contact can be indirect.

Chains of the proteins cited; added tags and fusions are not shown.
UniProt P23198: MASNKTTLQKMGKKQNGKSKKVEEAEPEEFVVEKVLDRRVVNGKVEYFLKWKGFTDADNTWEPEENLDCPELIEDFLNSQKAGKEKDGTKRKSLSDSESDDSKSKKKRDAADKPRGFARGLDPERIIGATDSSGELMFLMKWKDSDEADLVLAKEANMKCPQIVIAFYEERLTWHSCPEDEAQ
UniProt Q3U9G9: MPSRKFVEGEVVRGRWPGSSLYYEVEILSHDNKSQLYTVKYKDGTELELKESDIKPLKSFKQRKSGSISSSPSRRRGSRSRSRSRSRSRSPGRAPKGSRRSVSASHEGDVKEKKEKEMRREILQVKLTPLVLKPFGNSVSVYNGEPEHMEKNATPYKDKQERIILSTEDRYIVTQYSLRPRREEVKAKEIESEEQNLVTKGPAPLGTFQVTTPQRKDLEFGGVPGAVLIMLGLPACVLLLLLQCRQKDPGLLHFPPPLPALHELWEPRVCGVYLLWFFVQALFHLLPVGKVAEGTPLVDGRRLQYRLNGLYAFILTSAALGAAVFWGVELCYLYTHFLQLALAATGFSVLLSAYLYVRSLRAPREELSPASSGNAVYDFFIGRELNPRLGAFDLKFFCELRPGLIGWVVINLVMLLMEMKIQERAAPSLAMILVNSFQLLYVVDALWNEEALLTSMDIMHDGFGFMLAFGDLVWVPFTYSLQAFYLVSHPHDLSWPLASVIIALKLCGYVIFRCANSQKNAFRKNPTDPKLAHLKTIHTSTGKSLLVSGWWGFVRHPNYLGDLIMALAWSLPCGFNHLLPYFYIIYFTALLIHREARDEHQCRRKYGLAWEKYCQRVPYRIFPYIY
UniProt P20357: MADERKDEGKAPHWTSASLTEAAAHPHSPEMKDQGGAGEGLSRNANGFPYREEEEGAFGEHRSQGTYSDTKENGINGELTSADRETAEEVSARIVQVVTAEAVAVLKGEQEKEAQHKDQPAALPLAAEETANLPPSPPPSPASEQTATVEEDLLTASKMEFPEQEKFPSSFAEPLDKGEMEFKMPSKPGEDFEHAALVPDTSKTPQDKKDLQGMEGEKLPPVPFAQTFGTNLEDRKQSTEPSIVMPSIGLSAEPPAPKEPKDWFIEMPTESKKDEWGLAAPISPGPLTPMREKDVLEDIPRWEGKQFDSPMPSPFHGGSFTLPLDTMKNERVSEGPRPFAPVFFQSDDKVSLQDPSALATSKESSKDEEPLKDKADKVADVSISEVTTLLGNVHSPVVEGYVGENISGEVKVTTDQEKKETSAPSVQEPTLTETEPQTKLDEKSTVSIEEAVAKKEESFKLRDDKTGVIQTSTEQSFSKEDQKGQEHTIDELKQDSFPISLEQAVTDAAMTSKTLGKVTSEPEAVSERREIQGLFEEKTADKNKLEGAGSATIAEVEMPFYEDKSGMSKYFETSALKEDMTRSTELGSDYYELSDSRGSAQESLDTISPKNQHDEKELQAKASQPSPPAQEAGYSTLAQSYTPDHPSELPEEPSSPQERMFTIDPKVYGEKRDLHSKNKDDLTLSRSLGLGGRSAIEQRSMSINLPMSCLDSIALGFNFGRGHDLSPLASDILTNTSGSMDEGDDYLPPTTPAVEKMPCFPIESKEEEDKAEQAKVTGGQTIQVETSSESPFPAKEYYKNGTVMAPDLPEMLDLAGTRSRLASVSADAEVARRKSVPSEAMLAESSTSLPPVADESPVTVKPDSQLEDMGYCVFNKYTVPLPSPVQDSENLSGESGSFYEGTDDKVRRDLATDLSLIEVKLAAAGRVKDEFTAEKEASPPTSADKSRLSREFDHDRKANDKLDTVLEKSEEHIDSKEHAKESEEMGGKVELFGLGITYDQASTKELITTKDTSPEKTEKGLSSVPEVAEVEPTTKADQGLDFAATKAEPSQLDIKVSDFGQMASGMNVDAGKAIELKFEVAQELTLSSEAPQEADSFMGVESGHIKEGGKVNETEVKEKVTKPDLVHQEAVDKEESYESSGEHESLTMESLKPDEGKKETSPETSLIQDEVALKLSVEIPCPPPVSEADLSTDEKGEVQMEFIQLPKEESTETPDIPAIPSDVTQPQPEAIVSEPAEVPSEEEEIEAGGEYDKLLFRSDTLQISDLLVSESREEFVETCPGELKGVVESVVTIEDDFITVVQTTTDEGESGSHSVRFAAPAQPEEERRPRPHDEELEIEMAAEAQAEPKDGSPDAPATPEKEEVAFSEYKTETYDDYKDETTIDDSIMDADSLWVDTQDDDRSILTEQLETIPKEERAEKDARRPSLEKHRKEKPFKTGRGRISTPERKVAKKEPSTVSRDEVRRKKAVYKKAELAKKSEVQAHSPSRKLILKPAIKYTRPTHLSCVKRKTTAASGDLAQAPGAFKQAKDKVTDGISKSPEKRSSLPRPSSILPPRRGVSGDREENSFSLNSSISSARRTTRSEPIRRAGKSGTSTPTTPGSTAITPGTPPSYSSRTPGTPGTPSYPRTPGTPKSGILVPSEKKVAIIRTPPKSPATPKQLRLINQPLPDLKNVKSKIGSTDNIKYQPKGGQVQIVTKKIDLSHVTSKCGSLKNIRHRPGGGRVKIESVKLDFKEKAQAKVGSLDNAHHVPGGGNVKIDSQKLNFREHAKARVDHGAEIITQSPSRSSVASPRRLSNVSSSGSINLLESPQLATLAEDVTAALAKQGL

How the values were obtained:
[1] = molecular target: HP1ψ (HP1γ), endogenous in mouse hippocampal neurons (mouse (endogenous in primary hippocampal neurons)) (UniProt P23198); experiment: proximity ligation
[2] = molecular target: LBR, endogenous in mouse hippocampal neurons (mouse (endogenous in primary hippocampal neurons)) (UniProt Q3U9G9); experiment: proximity ligation

MAP2, endogenous in mouse hippocampal neurons (from UniProt P20357 1-1828)
binding [1]: no binding | binding [2]: no binding
